According to article PMC6224419, “Structural Studies based on two Lysine Dioxygenases with Distinct Regioselectivity Brings Insights Into Enzyme Specificity within the Clavaminate Synthase-Like Family” (Scientific Reports, 2018):
Results are given in words; binding and its absence hold for the method and conditions named. Some results given as binding are weak or reduced against the parent protein; the word gives no strength.

Key:
[1] = target: KDO1 from Catenulispora acidiphila (L-lysine dioxygenase, C-3 regioselective) (Catenulispora acidiphila) (UniProt C7QJ42); assay: crystal structure; X-ray structures of apo forms and of complexes with L-lysine, α-KG or products obtained by soaking; four molecules in the asymmetric unit; interfaces analysed with PISA; both purified
[2] = target: KDO5 from Flavobacterium sp. (L-lysine dioxygenase, C-4 regioselective) (Flavobacterium sp.) (UniProt J3BZS6); assay: as above

Binder	binding [1]	binding [2]
KDO1 from Catenulispora acidiphila (L-lysine dioxygenase, C-3 regioselective) (enzyme, UniProt C7QJ42 1-358, looked up, KDO1, iron(II)/alpha-ketoacid-dependent lysine dioxygenase of Catenulispora acidiphila; Cloned into pET-22b(+) with a hexa-histidine tail; Dimer in solution; four molecules (two dimers) in the asymmetric unit; First ordered residue in the crystals is Glu30; also called K DiOxygenase 1; source: E. coli BL21(DE3), purified (Ni-NTA)) MKNLSAYEVYESPKTSGESRTEAVSEAAFESDPEVSAILVLTSSEASTLERVADLVTAHALYAAHDFCAQAQLAAAELPSRVVARLQEFAWGDMNEGHLLIKGLPQVRSLPPTPTSNVHAVAATTPMSRYQALINECVGRMIAYEAEGHGHTFQDMVPSAMSAHSQTSLGSAVELELHTEQAFSPLRPDFVSLACLRGDPRALTYLFSARQLVATLTTQEIAMLREPMWTTTVDESFLAEGRTFLLGFERGPIPILSGADDDPFIVFDQDLMRGISAPAQELQQTVIRAYYAERVSHCLAPGEMLLIDNRRAVHGRSIFAPRFDGADRFLSRSFIVADGSRSRHARSSFGRVVSARFS	binds	
KDO5 from Flavobacterium sp. (L-lysine dioxygenase, C-4 regioselective) (enzyme, UniProt J3BZS6 1-372, looked up, KDO5, iron(II)/alpha-ketoacid-dependent lysine dioxygenase of Flavobacterium sp; Cloned into pET-22b(+) with a hexa-histidine tail; Tetramer in solution; four molecules (two dimers) in the asymmetric unit; First ordered residue in the crystals is Ala13; also called K DiOxygenase 5; source: E. coli BL21(DE3), purified (Ni-NTA)) MKSQSIMSVERSAETSLTLEIPTSPLIIKITQQERNILSNVGNLLVKAFGNYENPDYIASLHLHAFQLLPERITRILSQFGSDFSAEQYGAIVFQGLIEVDQDDLGPTPPNWQGADYGKLNKYGFICSLLHGAVPSKPVQYYAQRKGGGLLHAVIPDEKMAATQTGSGSKTDLFVHTEDAFLSNQADFLSFLYLRNEERVPSTLYSIRSHGKMNPVMKKLFEPIYQCPKDANYNDEDVANSGPTASVLYGNRELPFIRFDAAEQIFNENAGQTSEALGNLMDFWDEAKTLINSDYIPNSGDLIFVNNHLCAHGRSAFIAGQRIENGEIIKCERRQMLRMMSKTSLIHIRSVTRTDDPYFIMEEHLGKIFDLD		binds
